Laboratory results reported in patent US20260216103A1, “USE OF LONG-ACTING ß2AR AGONIST IN PREPARATION OF DRUGS FOR TREATING CANCERS” (HONG KONG SXMETEROL PHARMACEUTICAL CO., LIMITED, priority 2023, published 2026).
Counter-ions that a name gives are not always drawn.

System: cancer stem cells of 17 cancers
Test: tumor sphere formation assays of cancer cells, summary over 17 cancers
Format: cell-based
Conditions: summary of Examples 1-9; agonist used alone
Text: As a gold standard for detecting the self-renewal capability of cancer stem cells in vitro, a tumor sphere formation assay may detect individual cancer stem cell that continuously self-renew in a conditioned medium and form tumor spheres consisting of multiple cells. This in vitro experiment is often used to test the responsiveness of clinical patients to anticancer drugs, and guide in vivo medication of the clinical patients.
Cancer stem cells have self-renewal capability, which determines the initiation and progression of cancers. As a gold standard for detecting the self-renewal capability of cancer stem cells in vitro, a tumor sphere formation assay may detect individual cancer stem cells that continuously self-renew in a conditioned medium and form tumor spheres consisting of multiple cells.

In the case of `COc1ccc(C[C@@H](C)NC[C@H](O)c2ccc(O)c(NC=O)c2)cc1` [arformoterol tartrate], the “self-renewal capability of cancer stem cells” value is reported as “can significantly inhibit the self-renewal capability of cancer stem cells of 17 cancers”.
